Data as given in PubChem BioAssay AID1224829 (NIAID, 2016)
Shown is an unselected part of about 3,800 reagents tested. 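Calls cover raised and lowered translocation; gene median uses one vendor's three siRNAs; qiagen siRNAs acted more weakly than ambion siRNAs.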 Reagents against one gene are numbered here.

- Test: 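Follow-up of TLR4-NF-kappaB regulators using six separate siRNAs for each gene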 (follow-up of hits)
- Cells: mouse RAW264.7 G9 macrophage reporter cells
- Reagents: single siRNA against mouse genes, 100 nM
- Time to read-out: 2 days of siRNA knock-down, then 40 min of LPS before fixing
- Conditions: LPS (Salmonella minnesota R595) at 10 ng/ml
- Measured: 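Imaging of GFP-p65 after 40 min of LPS; nuclear over perinuclear ring intensity ratio, scaled to plate median and non-targeting control wells, given as z-score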
- Direction: p65 translocation z-score and gene median z-score, per vendor: higher = more nuclear NF-kappaB p65 after LPS
- Hit rule: 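An siRNA is called active when the mean z-score of its two replicates is above 2 or below -2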
- Meaning of the calls: active = changed p65 translocation (either direction); inactive = no clear change

| gene | reagent | siRNA vendor or control pool | p65 translocation z-score, replicate mean | p65 translocation z-score, replicate 1 | p65 translocation z-score, replicate 2 | gene median z-score, per vendor | call |
| --- | --- | --- | --- | --- | --- | --- | --- |
| Ces2e | 1 | ambion single siRNA | 1.94 | 2.6 | 1.28 | -0.431 | inactive |
| Ces2e | 2 | ambion single siRNA | -0.431 | 0.0566 | -0.919 | -0.431 | inactive |
| Ces2e | 3 | ambion single siRNA | -2.81 | -3.26 | -2.37 | -0.431 | active |
| Ces2e | 4 | qiagen single siRNA | -0.298 | 0.184 | -0.78 | -0.51 | inactive |
| Ces2e | 5 | qiagen single siRNA | -4.24 | -4.24 | – | -0.51 | active |
| Ces2e | 6 | qiagen single siRNA | -0.241 | -0.241 | – | -0.51 | inactive |
| Krtap9-1 | 1 | ambion single siRNA | -2.08 | -3.52 | -0.644 | -2.11 | active |
| Krtap9-1 | 2 | ambion single siRNA | -0.439 | -1.19 | 0.316 | -2.11 | inactive |
| Krtap9-1 | 3 | ambion single siRNA | -3.62 | -3.02 | -4.21 | -2.11 | active |
| Krtap9-1 | 4 | qiagen single siRNA | -1.11 | -0.9 | -1.31 | -1.11 | inactive |
| Krtap9-1 | 5 | qiagen single siRNA | -1.04 | -1.57 | -0.506 | -1.11 | inactive |
| Krtap9-1 | 6 | qiagen single siRNA | -1.31 | -2.08 | -0.549 | -1.11 | inactive |
| Ephx2 | 1 | ambion single siRNA | -0.317 | 0.261 | -0.896 | -0.896 | inactive |
| Ephx2 | 2 | ambion single siRNA | -2.09 | 0.782 | -4.96 | -0.896 | active |
| Ephx2 | 3 | ambion single siRNA | -2.38 | -2.38 | – | -0.896 | active |
| Ephx2 | 4 | qiagen single siRNA | 1.45 | 2.49 | 0.424 | -1.24 | inactive |
| Ephx2 | 5 | qiagen single siRNA | -2.59 | -2.7 | -2.48 | -1.24 | active |
| Ephx2 | 6 | qiagen single siRNA | -2.08 | -4.17 | 0.000546 | -1.24 | active |
| Slc51a | 1 | ambion single siRNA | -2.56 | -3.93 | -1.19 | -0.948 | active |
| Slc51a | 2 | ambion single siRNA | -0.978 | -1.25 | -0.704 | -0.948 | inactive |
| Slc51a | 3 | ambion single siRNA | 0.29 | -0.224 | 0.804 | -0.948 | inactive |
| Slc51a | 4 | qiagen single siRNA | 0.914 | 0.764 | 1.06 | 1.04 | inactive |
| Slc51a | 5 | qiagen single siRNA | 1.12 | 1.23 | 1.01 | 1.04 | inactive |
| Slc51a | 6 | qiagen single siRNA | 2.5 | 0.884 | 4.11 | 1.04 | active |

Entries listed so far whose gene name begins with S or s:
| gene | reagent | siRNA vendor or control pool | p65 translocation z-score, replicate mean | p65 translocation z-score, replicate 1 | p65 translocation z-score, replicate 2 | gene median z-score, per vendor | call |
| --- | --- | --- | --- | --- | --- | --- | --- |
| Slc51a | 1 | ambion single siRNA | -2.56 | -3.93 | -1.19 | -0.948 | active |
| Slc51a | 2 | ambion single siRNA | -0.978 | -1.25 | -0.704 | -0.948 | inactive |
| Slc51a | 3 | ambion single siRNA | 0.29 | -0.224 | 0.804 | -0.948 | inactive |
| Slc51a | 4 | qiagen single siRNA | 0.914 | 0.764 | 1.06 | 1.04 | inactive |
| Slc51a | 5 | qiagen single siRNA | 1.12 | 1.23 | 1.01 | 1.04 | inactive |
| Slc51a | 6 | qiagen single siRNA | 2.5 | 0.884 | 4.11 | 1.04 | active |

The results go on:
| gene | reagent | siRNA vendor or control pool | p65 translocation z-score, replicate mean | p65 translocation z-score, replicate 1 | p65 translocation z-score, replicate 2 | gene median z-score, per vendor | call |
| --- | --- | --- | --- | --- | --- | --- | --- |
| Ifi30 | 1 | ambion single siRNA | -4.87 | -6.21 | -3.53 | -2.96 | active |
| Ifi30 | 2 | ambion single siRNA | -0.237 | 1.92 | -2.39 | -2.96 | inactive |
| Ifi30 | 3 | ambion single siRNA | -4.17 | -6.31 | -2.03 | -2.96 | active |
| Ifi30 | 4 | qiagen single siRNA | -2.24 | -1.57 | -2.92 | -1.37 | active |
| Ifi30 | 5 | qiagen single siRNA | 1.14 | -0.497 | 2.78 | -1.37 | inactive |
| Ifi30 | 6 | qiagen single siRNA | -2.92 | -4.67 | -1.18 | -1.37 | active |
| Lyn | 1 | ambion single siRNA | -2.58 | -3.27 | -1.88 | -0.791 | active |
| Lyn | 2 | ambion single siRNA | 0.862 | 1.53 | 0.198 | -0.791 | inactive |
| Lyn | 3 | ambion single siRNA | -0.791 | -1.02 | -0.557 | -0.791 | inactive |
| Lyn | 4 | qiagen single siRNA | -1.45 | -1.27 | -1.63 | -1.45 | inactive |
| Lyn | 5 | qiagen single siRNA | 0.601 | -0.0375 | 1.24 | -1.45 | inactive |
| Lyn | 6 | qiagen single siRNA | -3.41 | -2.18 | -4.63 | -1.45 | active |
| Mettl18 | 1 | ambion single siRNA | -3.54 | -3.38 | -3.71 | -3.38 | active |
| Mettl18 | 2 | ambion single siRNA | -0.429 | -0.429 | – | -3.38 | inactive |
| Mettl18 | 3 | ambion single siRNA | -5.58 | -3.09 | -8.06 | -3.38 | active |
| Mettl18 | 4 | qiagen single siRNA | 3.65 | 3.07 | 4.23 | 3.07 | active |
| Mettl18 | 5 | qiagen single siRNA | -1.09 | -1.09 | – | 3.07 | inactive |
| Mettl18 | 6 | qiagen single siRNA | 2.4 | 1.04 | 3.75 | 3.07 | active |
| G6pd2 | 1 | ambion single siRNA | -3.74 | -2.72 | -4.77 | -3.74 | active |
| G6pd2 | 2 | ambion single siRNA | -1.3 | -1.36 | -1.24 | -3.74 | inactive |
| G6pd2 | 3 | ambion single siRNA | -6.72 | -6.98 | -6.47 | -3.74 | active |
| G6pd2 | 4 | qiagen single siRNA | 2.07 | 1.26 | 2.87 | 1.9 | active |
| G6pd2 | 5 | qiagen single siRNA | 2.55 | 1.9 | 3.19 | 1.9 | active |
| G6pd2 | 6 | qiagen single siRNA | 0.774 | 0.774 | – | 1.9 | inactive |
| Or12e9 | 1 | ambion single siRNA | -2.99 | -3.74 | -2.25 | -1.13 | active |
| Or12e9 | 2 | ambion single siRNA | 3.54 | 4.03 | 3.06 | -1.13 | active |
| Or12e9 | 3 | ambion single siRNA | -1.13 | -0.949 | -1.31 | -1.13 | inactive |
| Or12e9 | 4 | qiagen single siRNA | 1.39 | -0.189 | 2.97 | -0.191 | inactive |
| Or12e9 | 5 | qiagen single siRNA | 0.507 | -0.192 | 1.21 | -0.191 | inactive |
| Or12e9 | 6 | qiagen single siRNA | -1.8 | -1.58 | -2.02 | -0.191 | inactive |
